HELM strings list residues between dots; [ac] is acetyl, [am] amide, other brackets name non-standard units.
Assay: general procedure: Fmoc solid-phase peptide synthesis; Fmoc-Rink-amide ChemMatrix resin; HBTU/DIEA; DIPCDI for fluorophore coupling
Details: whole synthesis, HPLC, scale of the general procedure 0.1 mmol
With CF-WRRRYRRWRRRRRWRRRPRR-amide the “purity (crude or final not stated)” value was 98.1%. With TF3-SGTQEEY-amide the “purity (crude or final not stated)” value was 99.3%. With “PEPTIDE1{[rhb].A.G.I.L.K.R.W.[am]}$$$$V2.0” the “purity (crude or final not stated)” value was 99.4%. With “PEPTIDE1{K.K.R.L.K.K.I.F.K.K.P.M.V.I.G.V.T.I.P.F.[am]}$$$$V2.0” the “purity (crude or final not stated)” value was 98.8%. For PEPTIDE1{S.G.T.Q.E.E.Y.[am]}$$$$V2.0, the “purity (crude or final not stated)” value was 99.5%. With Q570-SGTQEEY-amide the “purity (crude or final not stated)” value was 99.6%. In the case of TF3-WRRRYRRWRRRRRWRRRPRR-amide, the “purity (crude or final not stated)” value is reported as 97.0%. For CF-KKRLKKIFKKPMVIGVTIPF-amide, the “purity (crude or final not stated)” value was 96.6%. In the case of “PEPTIDE1{[rhb].W.R.R.R.Y.R.R.W.R.R.R.R.R.W.R.R.R.P.R.R.[am]}$$$$V2.0”, the “purity (crude or final not stated)” value is reported as 98.5%. With “PEPTIDE1{[rhb].K.K.R.L.K.K.I.F.K.K.P.M.V.I.G.V.T.I.P.F.[am]}$$$$V2.0” the “purity (crude or final not stated)” value was 99.1%. For CF-SGTQEEY-amide, the “purity (crude or final not stated)” value was 99.1%. With TF3-AGILKRW-amide the “purity (crude or final not stated)” value was 95.2%. In the case of CF-AGILKRW-amide, the “purity (crude or final not stated)” value is reported as 96.3%. For Q570-WRRRYRRWRRRRRWRRRPRR-amide, the “purity (crude or final not stated)” value was 99.7%. For TF3-KKRLKKIFKKPMVIGVTIPF-amide, the “purity (crude or final not stated)” value was 95.2%. In the case of “PEPTIDE1{[rhb].S.G.T.Q.E.E.Y.[am]}$$$$V2.0”, the “purity (crude or final not stated)” value is reported as 95.3%. For “PEPTIDE1{W.R.R.R.Y.R.R.W.R.R.R.R.R.W.R.R.R.P.R.R.[am]}$$$$V2.0”, the “purity (crude or final not stated)” value was 99.1%. For Q570-KKRLKKIFKKPMVIGVTIPF-amide, the “purity (crude or final not stated)” value was 96.4%. For Q570-AGILKRW-amide, the “purity (crude or final not stated)” value was 99.6%. For PEPTIDE1{A.G.I.L.K.R.W.[am]}$$$$V2.0, the “purity (crude or final not stated)” value was 99.5%.

From article PMC7509492 (Frontiers in Bioengineering and Biotechnology, 2020)
